# According to US10421973B2, “Chemically inducible cucumber mosaic virus protein expression system” (THE REGENTS OF THE UNIVERSITY OF CALIFORNIA, priority 2006, dated 2019):
# Test: Extracellular estradiol concentration in culture medium (competitive immunoassay)
# Parameters: species or system Nicotiana benthamiana
smiles,measurement,setting,value
"C[C@]12CC[C@@H]3c4ccc(O)cc4CC[C@H]3[C@@H]1CC[C@@H]2O [estradiol, 17-β-estradiol]",extracellular estradiol concentration after depletion,"XVE and CMViva bioreactor cultures, after induction",0.8 µM
same,extracellular estradiol concentration at induction,"XVE and CMViva bioreactor cultures, before depletion",9.3 µM
same,time to depletion of estradiol from culture broth,XVE and CMViva culture broths,≤ 24 h
same,extracellular estradiol concentration,"wild type N. benthamiana cells in flask, estradiol added 10 days after inoculation",7.84 to 9.08 µM
